# Data as given in the supplement of paper PMC4604168 (melanoma cell lines).
# Some of the results follow. Repeats are few or missing, and single values can be far off.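 The apoptosis fraction was the count of cleaved-PARP antibody-stained nuclei relative to all DNA-stained nuclei, imaged in 1,536-well plates. Screening doses were set so most cells survived, and baseline and induced cleaved-PARP levels vary greatly across cell lines.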
# Key:
# Assay in all cases: cleaved PARP positive nuclei fraction relative to DMSO control; melanoma cells; higher = more apoptosis
# Details in all cases: library dose: low library concentration; 72 h
# 501Mel = tested on: 501Mel
# A101D = tested on: A101D
# A2058 = tested on: A2058
# C32 = tested on: C32
# CBRC008 = tested on: CBRC008 (line from a melanoma biopsy)
# CBRC014 = tested on: CBRC014 (line from a melanoma biopsy)
# CBRC016 = tested on: CBRC016 (line from a melanoma biopsy)
# CBRC017 = tested on: CBRC017 (line from a melanoma biopsy)
Compound,cleaved PARP positive nuclei fraction (501Mel) [%],cleaved PARP positive nuclei fraction (A101D) [%],cleaved PARP positive nuclei fraction (A2058) [%],cleaved PARP positive nuclei fraction (C32) [%],cleaved PARP positive nuclei fraction (CBRC008) [%],cleaved PARP positive nuclei fraction (CBRC014) [%],cleaved PARP positive nuclei fraction (CBRC016) [%],cleaved PARP positive nuclei fraction (CBRC017) [%]
"CS(=O)(=O)c1ccc(C(=O)Nc2ccc(Cl)c(-c3ccccn3)c2)c(Cl)c1 [vismodegib] + c1cc(-c2cnn3cc(-c4ccc(OCCN5CCCCC5)cc4)cnc23)ccn1 [Dorsomorphin] (first compound 1 µM, partner dose 0.4 µM)",84,44.3,41,56.3,76.4,109,73.6,89.6
"C[C@@H](N)c1ccc(C(=O)Nc2ccnc3[nH]ccc23)cc1 + CCc1ccc(CCOc2ccc(CC3SC(=O)NC3=O)cc2)nc1 [pioglitazone] (first compound 0.4 µM, partner dose 2 µM)",74,25.5,156,56.1,241,115,104,83
"CCCCCCCCc1ccc(CCC(N)(CO)CO)cc1 [fingolimod] + CCCCCCCCCCCC1=C(O)C(=O)C=C(O)C1=O [Embelin] (first compound 2 µM, partner dose 1.2 µM)",65.8,28.7,63,80.6,33.1,90.8,87.4,94.7
"NC1(c2ccc(-c3nc4ccn5c(=O)[nH]nc5c4cc3-c3ccccc3)cc2)CCC1 + O=c1cc(-c2cccc3c2Sc2ccccc2S3)oc(N2CCOCC2)c1 [KU55933] (first compound 0.4 µM, partner dose 1 µM)",61.3,28.4,61.2,171,188,77,35.1,70.5
"COc1ccc(C2=N[C@@H](c3ccc(Cl)cc3)[C@@H](c3ccc(Cl)cc3)N2C(=O)N2CCNC(=O)C2)c(OC(C)C)c1 [Nutlin-3] + O=C(Nc1ccccc1)c1cc([N+](=O)[O-])ccc1Cl [GW9662] (first compound 0.1 µM, partner dose 2 µM)",70.9,60.4,97.7,123,73,110,99.9,92
"CCN(CC)CCNC(=O)c1c(C)[nH]c(/C=C2\C(=O)Nc3ccc(F)cc32)c1C [sunitinib] + CCCCCCCCCCCC1=C(O)C(=O)C=C(O)C1=O [Embelin] (first compound 0.4 µM, partner dose 1.2 µM)",83.9,49.6,281,84.1,78.8,82,22.4,72.7
"NC1(c2ccc(-c3nc4ccn5c(=O)[nH]nc5c4cc3-c3ccccc3)cc2)CCC1 + COc1cc2ncnc(Nc3ccc(Oc4ccccc4)cc3)c2cc1OC [SrcI1] (first compound 0.4 µM, partner dose 2 µM)",77.1,30.1,118,84.1,162,40.7,113,128
"Cn1sc(=O)n(Cc2ccccc2)c1=O + N#Cc1c(O)c2c(-c3ccc(-c4ccccc4O)cc3)csc2[nH]c1=O [A769662] (first compound 0.4 µM, partner dose 2 µM)",31.3,27,67.2,105,99.8,82.7,36.7,97.7
"CC(=O)O[C@@]12CO[C@@H]1C[C@H](O)[C@@]1(C)C(=O)[C@H](O)C3=C(C)[C@@H](OC(=O)[C@H](O)[C@@H](NC(=O)OC(C)(C)C)c4ccccc4)C[C@@](O)([C@@H](OC(=O)c4ccccc4)[C@H]21)C3(C)C [Docetaxel] + Oc1cc(-c2nc(-c3ccccc3)[nH]c2-c2ccncc2)ccc1Cl [L779450] (first compound 0.0001 µM, partner dose 0.2 µM)",309,10.5,5080,437,467,175,67.2,157
"CN(c1ncccc1CNc1nc(Nc2ccc3c(c2)CC(=O)N3)ncc1C(F)(F)F)S(C)(=O)=O + CCCCCCCCCCCC1=C(O)C(=O)C=C(O)C1=O [Embelin] (first compound 0.08 µM, partner dose 1.2 µM)",76.3,27.7,68.8,76.2,42.3,81.2,49.5,90.3
"NC(=O)c1ccc(N(C(N)=O)c2c(F)cccc2F)nc1-c1ccc(F)cc1F + c1cc(-c2cnn3cc(-c4ccc(OCCN5CCCCC5)cc4)cnc23)ccn1 [Dorsomorphin] (first compound 0.4 µM, partner dose 0.4 µM)",70.7,28.2,37.7,33.5,98.9,119,40.5,96.7
"CC1(C)CCC(c2ccc(Cl)cc2)=C(CN2CCN(c3ccc(C(=O)NS(=O)(=O)c4ccc(N[C@H](CCN5CCOCC5)CSc5ccccc5)c(S(=O)(=O)C(F)(F)F)c4)cc3)CC2)C1 + Oc1cc(-c2nc(-c3ccccc3)[nH]c2-c2ccncc2)ccc1Cl [L779450] (first compound 0.4 µM, partner dose 0.2 µM)",110,106,65.8,148,519,544,365,241
"Cn1sc(=O)n(Cc2ccccc2)c1=O + Oc1cc(-c2nc(-c3ccccc3)[nH]c2-c2ccncc2)ccc1Cl [L779450] (first compound 0.4 µM, partner dose 0.2 µM)",91.6,17.1,65.8,99.3,86.7,97.3,62.2,83.4
"NC(=O)c1ccc(N(C(N)=O)c2c(F)cccc2F)nc1-c1ccc(F)cc1F + O=S(=O)(c1ccccc1)N(CC(F)(F)F)c1ccc(C(O)(C(F)(F)F)C(F)(F)F)cc1 [T0901317] (first compound 0.4 µM, partner dose 1.4 µM)",77.1,26.7,98.3,79.7,94.5,116,55.9,110
"C[C@@H](N)c1ccc(C(=O)Nc2ccnc3[nH]ccc23)cc1 + Oc1cc(-c2nc(-c3ccccc3)[nH]c2-c2ccncc2)ccc1Cl [L779450] (first compound 0.4 µM, partner dose 0.2 µM)",82.4,17.2,68.5,62.3,93.6,103,54.8,214
"C[C@@H](N)c1ccc(C(=O)Nc2ccnc3[nH]ccc23)cc1 + O=S(=O)(c1ccccc1)N(CC(F)(F)F)c1ccc(C(O)(C(F)(F)F)C(F)(F)F)cc1 [T0901317] (first compound 0.4 µM, partner dose 1.4 µM)",172,20.5,114,155,109,145,65.9,119
"Cn1cnc2c(F)c(Nc3ccc(Br)cc3Cl)c(C(=O)NOCCO)cc21 [selumetinib] + COc1ccc(-c2ccc3c(N4CCOCC4)nc(N4C[C@@H](C)O[C@@H](C)C4)nc3n2)cc1CO [KU0063794] (first compound 0.015 µM, partner dose 0.02 µM)",95.1,76.5,17.7,23.3,280,146,125,138
"Cn1cnc2c(F)c(Nc3ccc(Br)cc3Cl)c(C(=O)NOCCO)cc21 [selumetinib] + N#Cc1c(O)c2c(-c3ccc(-c4ccccc4O)cc3)csc2[nH]c1=O [A769662] (first compound 0.015 µM, partner dose 2 µM)",65.5,19.1,57.4,94.3,189,79,95.5,85.9
"Cn1sc(=O)n(Cc2ccccc2)c1=O + CCN(CC)CCCCNc1ncc2cc(-c3cc(OC)cc(OC)c3)c(NC(=O)NC(C)(C)C)nc2n1 [PD173074] (first compound 0.4 µM, partner dose 0.1 µM)",72.8,43,119,115,112,184,102,65.9
"Cn1sc(=O)n(Cc2ccccc2)c1=O + COc1ccc(-c2ccc3c(N4CCOCC4)nc(N4C[C@@H](C)O[C@@H](C)C4)nc3n2)cc1CO [KU0063794] (first compound 0.4 µM, partner dose 0.02 µM)",139,8.57,259,101,200,109,109,105
"CS(=O)(=O)c1ccc(C(=O)Nc2ccc(Cl)c(-c3ccccn3)c2)c(Cl)c1 [vismodegib] + O=C(O)C(=O)Nc1sc2c(c1C(=O)O)CCNC2 [TCS401] (first compound 1 µM, partner dose 1.66667 µM)",108,25.8,76.9,33.8,311,86.7,144,61.4
"CCCCCCCCc1ccc(CCC(N)(CO)CO)cc1 [fingolimod] + Cn1cc(/C=C2\C(=O)Nc3cccnc32)c2ccccc21 [GW441756] (first compound 2 µM, partner dose 0.4 µM)",92.2,74.9,81.2,81.7,51.2,101,27.9,206
"CC1(C)CCC(c2ccc(Cl)cc2)=C(CN2CCN(c3ccc(C(=O)NS(=O)(=O)c4ccc(N[C@H](CCN5CCOCC5)CSc5ccccc5)c(S(=O)(=O)C(F)(F)F)c4)cc3)CC2)C1 + CCCCCCCCCCCC1=C(O)C(=O)C=C(O)C1=O [Embelin] (first compound 0.4 µM, partner dose 1.2 µM)",74.2,116,261,1130,184,890,518,310
"COc1ccc(C2=N[C@@H](c3ccc(Cl)cc3)[C@@H](c3ccc(Cl)cc3)N2C(=O)N2CCNC(=O)C2)c(OC(C)C)c1 [Nutlin-3] + c1cc(-c2cnn3cc(-c4ccc(OCCN5CCCCC5)cc4)cnc23)ccn1 [Dorsomorphin] (first compound 0.1 µM, partner dose 0.4 µM)",92.9,29.5,101,39.4,40.9,126,81.4,120

# Random excerpt: 2 records from the list.
Compound,cleaved PARP positive nuclei fraction (501Mel) [%],cleaved PARP positive nuclei fraction (A101D) [%],cleaved PARP positive nuclei fraction (A2058) [%],cleaved PARP positive nuclei fraction (C32) [%],cleaved PARP positive nuclei fraction (CBRC008) [%],cleaved PARP positive nuclei fraction (CBRC014) [%],cleaved PARP positive nuclei fraction (CBRC016) [%],cleaved PARP positive nuclei fraction (CBRC017) [%]
"NC1(c2ccc(-c3nc4ccn5c(=O)[nH]nc5c4cc3-c3ccccc3)cc2)CCC1 + O=c1cc(-c2cccc3c2Sc2ccccc2S3)oc(N2CCOCC2)c1 [KU55933] (first compound 0.4 µM, partner dose 1 µM)",61.3,28.4,61.2,171,188,77,35.1,70.5
"CN(c1ncccc1CNc1nc(Nc2ccc3c(c2)CC(=O)N3)ncc1C(F)(F)F)S(C)(=O)=O + CCCCCCCCCCCC1=C(O)C(=O)C=C(O)C1=O [Embelin] (first compound 0.08 µM, partner dose 1.2 µM)",76.3,27.7,68.8,76.2,42.3,81.2,49.5,90.3
